Results are given in words; binding and its absence hold for the method and conditions named. Binding can be weak; no strength is given. Tags and fused reporters may be left off the sequences shown.

Protein sequences, listed by entry. Tags and fused reporters are not part of them. Lines headed by an entry give the natural chain unless they say otherwise; changes in a name come on top.
UniProt P53350: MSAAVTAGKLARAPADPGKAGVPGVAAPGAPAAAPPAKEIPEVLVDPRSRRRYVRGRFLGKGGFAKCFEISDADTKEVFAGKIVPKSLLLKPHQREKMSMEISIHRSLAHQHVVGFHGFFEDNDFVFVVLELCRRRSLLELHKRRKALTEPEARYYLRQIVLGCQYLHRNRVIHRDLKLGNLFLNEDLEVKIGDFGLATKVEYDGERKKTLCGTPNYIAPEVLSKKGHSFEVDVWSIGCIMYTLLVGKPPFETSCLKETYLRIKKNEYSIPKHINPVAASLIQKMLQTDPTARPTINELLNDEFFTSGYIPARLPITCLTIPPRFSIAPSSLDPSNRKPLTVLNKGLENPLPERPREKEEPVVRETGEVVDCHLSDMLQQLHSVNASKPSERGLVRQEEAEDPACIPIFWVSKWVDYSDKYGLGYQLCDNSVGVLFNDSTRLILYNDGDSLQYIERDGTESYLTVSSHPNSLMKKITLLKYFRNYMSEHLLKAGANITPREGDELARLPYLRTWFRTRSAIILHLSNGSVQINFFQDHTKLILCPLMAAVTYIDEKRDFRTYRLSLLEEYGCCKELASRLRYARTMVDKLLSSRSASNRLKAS

The target of the assay is T1, GST-Map205^PBM (276-325 aa) (Drosophila) (UniProt P23226).
T1 sequence: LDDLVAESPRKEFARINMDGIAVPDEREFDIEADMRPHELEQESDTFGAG
Put plainly: ELISA; GST-Map205^PBM (10 ug/mL) coated on a 96-well plate; His-tagged Plk1 PBD (3 ug/mL) pre-incubated 45 min at RT with T521 or DMSO, then added; detected with mouse anti-His antibody and anti-mouse IgG-HRP, OD450; both purified. In general terms: ELISA stands for enzyme-linked immunosorbent assay.

As for “Polo-Box domain (PBD) of Polo-like kinase 1 (Plk1), His-tagged (from UniProt P53350) (domain or fragment)”, the binding entry is on record as “binds”.

The values are drawn from article PMC5352051, “Identification of a novel Polo-like kinase 1 inhibitor that specifically blocks the functions of Polo-Box domain” (Oncotarget, 2016).
